According to US11911551B2, “Method for treating drug intoxication” (ExThera Medical Corporation, priority 2016, dated 2024):
Some entries repeat one wording, which the source may state once for all of them.

Experiment: Antibiotic-spiked blood passed through 1-mL minicartridge filled with heparinized media; plasma concentration before and after
Conditions: 2 mL spiked blood passed through heparinized-media minicartridge over 20 second; FIG. 3

| Structure (SMILES) | concentration of drug in the plasma before and after contacting the adsorption media |
| --- | --- |
| CC(C)(O/N=C(\C(=O)N[C@@H]1C(=O)N2C(C(=O)[O-])=C(C[n+]3ccccc3)CS[C@H]12)c1csc(N)n1)C(=O)O [ceftazidime] | reduction in concentration |
| CCCCCCCCCC(=O)N[C@@H](Cc1c[nH]c2ccccc12)C(=O)N[C@H](CC(N)=O)C(=O)N[C@@H](CC(=O)O)C(=O)N[C@@H]1C(=O)NCC(=O)N[C@@H](CCCN)C(=O)N[C@@H](CC(=O)O)C(=O)N[C@H](C)C(=O)N[C@@H](CC(=O)O)C(=O)NCC(=O)N[C@H](CO)C(=O)N[C@@H]([C@H](C)CC(=O)O)C(=O)N[C@@H](CC(=O)c2ccccc2N)C(=O)O[C@@H]1C [daptomycin] | reduction in concentration |
| C[C@@H]1O[C@@H]1P(=O)(O)O [fosfomycin] | reduction in concentration |
| CC(=O)NC[C@H]1CN(c2ccc(N3CCOCC3)c(F)c2)C(=O)O1 [linezolid] | reduction in concentration |
| CN[C@H](CC(C)C)C(=O)N[C@H]1C(=O)N[C@@H](CC(N)=O)C(=O)N[C@H]2C(=O)N[C@H]3C(=O)N[C@H](C(=O)N[C@H](C(=O)O)c4cc(O)cc(O)c4-c4cc3ccc4O)[C@H](O)c3ccc(c(Cl)c3)Oc3cc2cc(c3O[C@@H]2O[C@H](CO)[C@@H](O)[C@H](O)[C@H]2O[C@H]2C[C@](C)(N)[C@H](O)[C@H](C)O2)Oc2ccc(cc2Cl)[C@H]1O [vancomycin] | reduction in concentration |
